# Source: patent publication US20260007760A1, “CAMPTOTHECIN DERIVATIVES THAT BIND TO DDX5 PROTEIN AND PRODRUGS THEREOF” (priority 2022, published 2026)
# Some of these results come from one statement about several compounds together.
# Experiment: Lactone to carboxylate form conversion in pH 7.4 (RP-HPLC)
# Format: physicochemical
# Settings: pH 7.4, 37° C.
smiles,measurement,value
CC[C@@]1(O)C(=O)OCc2c1cc1n(c2=O)Cc2c-1nc1cc3c(c4c1c2[C@@H](NC(=O)[C@@H](C)O)CC4)OCO3 [PBX-7016],Degree of formation of the carboxylate form,≥ 86%
